For 27 compounds, cell number change and AC50 results are on record in PubChem BioAssay AID2685 (National Center for Advancing Translational Sciences (NCATS), 2010).

The list shows a part of the results. These are further read-outs of the screen, such as a control signal, another cell line or another target. No call is given for them. The list favours compounds with an active or inconclusive main result. Potencies come from curve fits of mixed quality, noted in brackets.

The nature of the experiment: qHTS Assay for Lipid Storage Modulators in Drosophila S3 Cells.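 For cell number change: cells counted by Cell Tracker Red CMTPX staining in the red channel.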 The settings on record: BODIPY lipid droplet fluorescence, 18-24 h; for cell number change: measured here: cell count max response, cells fed with added oleic acid. The source says:
NIH Molecular Libraries Probe Production Centers Network [MLPCN] NIH Chemical Genomics Center [NCGC] MLPCN Grant: 1 R03 MH085686-01 Assay Submitter (PI): Beller, Mathias; Max-Planck-Institut fur Biophysikalische Chemie NCGC Assay Overview: Storing lipids as a reservoir for energy or the anabolism of elementary metabolites is a common feature of probably all cells and is conserved from bacteria to humans. The universal cellular lipid storage organelle is the so-called lipid storage droplet (LD). Although ubiquitous, LDs share a simple structure composed of a hydrophobic core that harbors the storage lipids, which is shielded by a droplet-specific phospholipid monolayer to which proteins are attached. The current model of LD biogenesis involves an incorporation of the lipid core into the membrane leaflets of the endoplasmic reticulum (ER) followed by a subsequent budding-like maturation of a LD, which ultimately pinches off. Once released, LD volume can increase by localized lipogenesis or fusion of existing droplet. Storage lipids are re-mobilized enzymatically by lipase activity. Lipase regulation in the adipocyte is heavily studied and involves multiple components including catecholamine signaling, the LD-associated proteins Perilipin and comparative gene identification (CGI-58) and at least two lipases named hormone sensitive lipase (HSL) and adipocyte triglyceride lipase (ATGL). LD regulation outside of the adipocyte is poorly understood and only few components are known. However, there is an urgent need to learn more about ectopic fat depots as mislocalized storage of lipids, for example in the liver or muscle, is an eminent health problem associated with insulin resistance or the metabolic syndrome. We developed a laser-scanning cytometer assay to enable 1,536-well screening and combined the results of the small molecules screen with an RNAi database based on lipid storage.
Triacsin C (Sigma-Aldrich T-4540), an inhibitor of long-chain fatty acyl CoA synthetase that blocks synthesis of triglycerides, was used as a positive control for lipid under-storage. A total of 23 nL of compound solution of different concentrations were transferred to the assay plates using a Kalypsys pin tool equipped with a 1,536-pin array containing 10-nL slotted pins (FP1S10, 0.457-mm diameter, 50.8 mm long; V&P Scientific). One microliter of oleic acid (400 uM) was added, and the plate was lidded with stainless steel rubber gasket lined lids containing pinholes. […] Fluorescence was detected by excitation of the fluorophores with a 488-nm laser on an Acumen Explorer (TTP Lab Tech). The total intensity in channel 2 (500-530 nm) reflected lipid droplet accumulation. Cells were detected using channel 3 (575-640 nm) with 5-um width and 100-um depth filters. The ratio of the number of objects in PMT channel 2 over the number of objects in PMT channel 3 was also calculated. Percent activity was computed relative to an internal control (100% inhibited lipid droplet deposition due to the presence of 20 uM Triacsin C), which was added to 32 wells/plate.
For orientation: Quantitative high-throughput screening tests each substance at several concentrations.

[1] abbreviates: measured here: lipid fluorescence (Fed channel) AC50, cells fed with added oleic acid.
Setting [2] is: measured here: cell number channel AC50, cells fed with added oleic acid.

The term AC50 denotes the concentration at which the activity in the assay is half-maximal.

Turning to `COc1ccc(N(C(=O)CNC(=O)c2ccco2)C(C(=O)NCC2CCCO2)c2ccc(OC)c(OC)c2)cc1` (stereo not drawn), the cell number change is -1.9%. Besides, the AC50 under setting [1] was 6.51 µM [rising, single point].
As to `COc1cc2c(cc1OC)CN(CC(=O)Nc1ccccc1SC)CC2`, the half-maximal activity concentration (AC50) under setting [1] was 2.91 µM [rising, single point].
For the compound `COc1nc(-c2ccccc2)cc(-c2ccccc2)n1`, the cell number change stood at 5.03%. For the same compound, the concentration at half-maximal activity (AC50) under setting [1] is 1.46 µM [rising, partial curve, poor fit].
On to `COc1ccccc1C(=O)O/N=C1/CCCc2c1ccc(OC)c2[N+](=O)[O-]`, for which the cell number change is 55.9%. Moreover, the AC50 under setting [2] is 3.26 µM [rising, full curve]. The half-maximal activity concentration (AC50) under setting [1] was 0.651 µM [falling, single point].
For `Cn1c(C2CCCCC2)nc2cc(N)ccc21`, the half-maximal activity concentration (AC50) under setting [1] is 0.13 µM [rising, full curve, poor fit].
On to `COc1ccc(-c2noc(CCC(N)=O)n2)cc1OC`, for which the cell number change turned out to be 28%. In addition, the AC50 under setting [1] is 6.51 µM [falling, single point].
On to `COC(=O)C1CCN(C(=O)c2ccc(NC(C)=O)cc2)CC1`, for which the cell number change is 2.86%. Under setting [1], the half-maximal activity concentration (AC50) was 29.1 µM [falling, single point].
In the case of `COc1ccc(CCNC(=O)CSc2nnc(Cn3c(=O)sc4ccccc43)n2C)cc1OC`, the cell number change is -19.4%. The AC50 under setting [1] is 18.4 µM [falling, single point].
As for `CCOc1ccc(C(Nc2ccc(C)cc2)P2(=O)OCCCO2)cc1` (stereo not drawn), the cell number change was -37.9%.
Consider `CCOC(=O)Cc1csc(NC(=O)c2ccc3ncsc3c2)n1`, for which the cell number change is -14.1%. In addition, the half-maximal activity concentration (AC50) under setting [1] was 0.058 µM [falling, full curve, poor fit].
With `COc1ccccc1C(=O)Nc1nc(-c2ccc(S(=O)(=O)N3CCOCC3)cc2)cs1`, the cell number change is -70.5%. Further, the AC50 under setting [2] is 5.17 µM [falling, full curve]. Besides, the AC50 under setting [1] is 6.51 µM [rising, single point].
Regarding `CCC(=O)Nc1nonc1-c1nc2ccccc2n1CC(C)C`, the cell number change worked out at 4.67%. In addition, the AC50 under setting [1] was 1.64 µM [rising, full curve].
For the compound `O=C(O)CCCCCNS(=O)(=O)c1cccc2nsnc12`, the cell number change was -30.4%. In addition, the AC50 under setting [2] was 2.31 µM [falling, full curve, poor fit]. The AC50 under setting [1] was 29.1 µM [falling, single point].
On to `CCC(=O)NCc1cc(-c2nn(C)c(=O)c3ccccc23)ccc1OC`, for which the cell number change was found to be 22.6%. Besides, the AC50 under setting [1] was 16.4 µM [rising, partial curve, poor fit].
With `COc1ccc(NC(=O)N2CCOCC2)cc1`, the cell number change amounted to 21.1%. The half-maximal activity concentration (AC50) under setting [2] is 5.17 µM [rising, partial curve]. The AC50 under setting [1] was 29.1 µM [rising, single point].
Regarding `Cn1nnnc1SCc1ccc(C(=O)Nc2nccs2)cc1`, the cell number change was -30.8%. Also, under setting [2], the half-maximal activity concentration (AC50) is 25.9 µM [falling, partial curve, poor fit].
Consider `Clc1ccccc1Cn1nnc2c(N3CCCC3)ncnc21`, for which the cell number change turned out to be 21.9%. Besides, the AC50 under setting [2] is 3.66 µM [rising, single point]. Also, the AC50 under setting [1] was 3.66 µM [rising, full curve].
Regarding `O=C(c1ccc(F)cc1)c1cn(Cc2ccc(F)cc2)c2cc3c(cc2c1=O)OCCO3`, the cell number change was 33.5%. Further, under setting [2], the half-maximal activity concentration (AC50) was 9.2 µM [rising, partial curve].
As to `CCCOc1cccc(NC(=O)c2cc(C)oc2C)c1`, the cell number change is -22.3%.
Turning to `Cc1ccc(OCCCCn2ccnc2C)c(C)c1`, the cell number change was -50.7%. For the same compound, the concentration at half-maximal activity (AC50) under setting [1] was 20.6 µM [falling, single point].
`COC(=O)c1ccccc1NC(=S)NC(=O)COc1ccccc1Cl`: the cell number change was -6.66%. Also, under setting [2], the half-maximal activity concentration (AC50) is 3.66 µM [falling, single point]. For the same compound, the concentration at half-maximal activity (AC50) under setting [1] was 6.51 µM [falling, single point].
For `COC(=O)c1scc(C)c1N1C(=O)c2ccccc2C1=O`, the cell number change was determined as 22.6%. Besides, the AC50 under setting [1] is 32.6 µM [rising, single point].
For `Cc1noc(C)c1CC(=O)Nc1ccc2c(c1)OCO2`, the cell number change amounted to 30.1%. Also, under setting [2], the half-maximal activity concentration (AC50) is 29.1 µM [rising, single point]. The half-maximal activity concentration (AC50) under setting [1] was 0.082 µM [rising, full curve, poor fit].
`COc1cccc(NC(=O)Cn2nnc(C(=O)Nc3cc(Cl)ccc3OC)c2N)c1`: the cell number change amounted to 46.6%. Besides, the AC50 under setting [2] was 0.517 µM [rising, partial curve, poor fit].
`CCc1nc2sc(C)c(C)c2c(=O)n1CCO`: the concentration at half-maximal activity (AC50) under setting [1] is 1.64 µM [falling, partial curve].
For the compound `CCOC(=O)C1=C(C)N(C)C(C)=C(C(=O)OCC)C1c1ccsc1`, the cell number change is -24%. For the same compound, the AC50 under setting [2] was 0.731 µM [rising, single point]. The AC50 under setting [1] was 0.92 µM [rising, full curve].
Turning to `Cn1cc(CNC(=O)c2sc3cccc(Cl)c3c2Cl)cn1`, the cell number change was -45.5%. In addition, the AC50 under setting [2] is 16.4 µM [falling, partial curve]. For the same compound, the concentration at half-maximal activity (AC50) under setting [1] was 16.4 µM [falling, partial curve].
